# Source: the supplement of paper PMC3741180, “A Novel High Throughput Biochemical Assay to Evaluate the HuR Protein-RNA Complex Formation” (PLoS ONE, 2013)
# The chains behind the UniProt entries cited, without tags or fusion partners.
# UniProt Q15717, whole entry: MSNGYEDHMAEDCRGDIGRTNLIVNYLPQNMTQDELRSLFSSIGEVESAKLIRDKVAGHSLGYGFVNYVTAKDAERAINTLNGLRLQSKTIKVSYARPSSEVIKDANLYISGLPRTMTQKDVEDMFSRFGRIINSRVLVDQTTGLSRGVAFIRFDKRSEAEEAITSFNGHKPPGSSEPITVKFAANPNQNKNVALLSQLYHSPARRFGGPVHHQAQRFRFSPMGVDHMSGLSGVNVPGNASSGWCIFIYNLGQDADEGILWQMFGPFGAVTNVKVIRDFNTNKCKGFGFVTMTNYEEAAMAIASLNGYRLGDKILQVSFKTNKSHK
# This is one part of the list. Most values lie within the scatter of the assay; repeated measurements hardly agree.
# Molecular target: HuR (ELAVL1) - TNFalpha ARE RNA complex (UniProt Q15717)
# Experiment: AlphaScreen HuR-RNA complex signal Z-score relative to positive (Bi-TNF, DMSO) controls (Z-score (SD units of positive control)); higher = more complex signal
# Settings: screen stage: primary screen; compound concentration: 25 nM
row,SMILES,AlphaScreen HuR-RNA complex signal Z-score
1,C[C@H](CCC(=O)O)[C@H]1CC[C@H]2[C@@H]3CC[C@@H]4C[C@H](O)CC[C@]4(C)[C@H]3C[C@H](O)[C@]12C,1.9
2,COc1ccc2cc(C(C)C(=O)O)ccc2c1 (configuration not stated),3.26
3,CN(C)C(=O)Nc1ccc(Cl)c(Cl)c1,2.14
4,O=C(O)CCCc1ccccc1,1.6
5,NC1=NCCN1CC(=O)O,2.05
6,CC1(C)O[C@@H]2C[C@H]3[C@@H]4CCC5=CC(=O)C=C[C@]5(C)[C@@]4(F)[C@@H](O)C[C@]3(C)[C@]2(C(=O)CO)O1,-1.04
7,C[C@@H]1C[C@H]2[C@@H]3CCC4=CC(=O)C=C[C@]4(C)[C@@]3(F)[C@@H](O)C[C@]2(C)[C@@]1(O)C(=O)CO,-3.99
8,OC1(c2ccc(Cl)c(C(F)(F)F)c2)CCN(CCCC(c2ccc(F)cc2)c2ccc(F)cc2)CC1,0.316
9,CC1(O)CC2C(CC1O)C2(C)C (configuration not stated),1.79
10,Cc1nnc(NS(=O)(=O)c2ccc(N)cc2)s1,6.83
11,COc1cc(NS(C)(=O)=O)ccc1Nc1c2ccccc2nc2ccccc12,1.55
12,CCN1CCN(c2cc3c(cc2F)c(=O)c(C(=O)O)cn3C2CC2)CC1,0.895
13,C1CCN2C[C@@H]3C[C@@H](CN4CCCC[C@@H]34)[C@H]2C1,0.312
14,CC1CC(OC(=O)C(O)c2ccccc2)CC(C)(C)N1C (configuration not stated),3.4
15,OC[C@H]1O[C@@H](n2cnc3c(NCc4ccco4)ncnc32)[C@H](O)[C@@H]1O,2.38
16,Cc1ccc(Cl)c(Nc2ccccc2C(=O)O)c1Cl,1.18
17,CCN1CCN(C(=O)N[C@@H](C(=O)N[C@@H]2C(=O)N3C(C(=O)O)=C(CSc4nnnn4C)CS[C@H]23)c2ccc(O)cc2)C(=O)C1=O,0.263
18,CN(C)CCOc1ccc(/C(=C(/CCCl)c2ccccc2)c2ccccc2)cc1,-1.09
19,CC(C(=O)O)c1ccc(N2Cc3ccccc3C2=O)cc1 (configuration not stated),0.211
20,CO[C@@]12[C@H](COC(N)=O)C3=C(C(=O)C(C)=C(N)C3=O)N1C[C@@H]1N[C@@H]12,0.315
21,C[C@H]1C[C@H]2[C@@H]3CCC4=CC(=O)C=C[C@]4(C)[C@@]3(F)[C@@H](O)C[C@]2(C)[C@@]1(O)C(=O)CO,0.312
22,CC(C)C1=CC2=CC[C@@H]3[C@](C)(CCC[C@@]3(C)C(=O)O)[C@H]2CC1,-0.411
23,O=C(O[C@@H]1Cc2c(O)cc(O)cc2O[C@@H]1c1cc(O)c(=O)c2c(O)c(O)cc([C@H]3Oc4cc(O)cc(O)c4C[C@H]3O)c2c1)c1cc(O)c(O)c(O)c1,1.22
24,COC(=O)CC[C@@H](C)[C@H]1CC[C@H]2[C@@H]3CC[C@@H]4C[C@H](O)CC[C@]4(C)[C@H]3C[C@H](O)[C@]12C,-0.99
25,C[C@@H]1O[C@@H](O[C@H]2[C@H](O[C@H]3CC[C@@]4(C)[C@@H](CC[C@]5(C)[C@@H]4CC=C4[C@@H]6CC(C)(C)CC[C@]6(C(=O)O[C@@H]6O[C@H](CO[C@@H]7O[C@H](CO)[C@@H](O[C@@H]8O[C@@H](C)[C@H](O)[C@@H](O)[C@H]8O)[C@H](O)[C@H]7O)[C@@H](O)[C@H](O)[C@H]6O)CC[C@]45C)[C@]3(C)CO)OC[C@H](O)[C@@H]2O)[C@H](O)[C@H](O)[C@H]1O,-0.0701

row,SMILES,AlphaScreen HuR-RNA complex signal Z-score
1,C[C@H]1CC2C3CCC4=CC(=O)C=C[C@]4(C)[C@@]3(F)[C@@H](O)C[C@]2(C)[C@@]1(O)C(=O)COP(=O)(O)O (some centres not stated),2.01
2,CCOC(=O)CCCCCCCCCCCCC1C=CCC1 (configuration not stated),3.89
3,O=c1c(-c2ccc(O)cc2)coc2c([C@@H]3O[C@H](CO)[C@@H](O)[C@H](O)[C@H]3O)c(O)ccc12,1.63
4,O=C(O)C(S)C(S)C(=O)O (configuration not stated),1.86
5,CCn1nc(C(=O)O)c(=O)c2cc3c(cc21)OCO3,-2.46
6,Cc1cc(/C=C/c2ccc3cc(N(C)C)ccc3[n+]2C)c(C)n1-c1ccccc1,4.86
7,CC(C)=CCC/C(C)=C/CC/C(C)=C/CC/C(C)=C/CC/C(C)=C/CC/C(C)=C/CC/C(C)=C/CC/C(C)=C/CC/C(C)=C/CO,1.14
8,OC[C@H]1O[C@H]([S-])[C@H](O)[C@@H](O)[C@@H]1O.[Au+],0.312
9,CCCNC(C)C(=O)Nc1ccccc1C (configuration not stated),-1.22
10,COc1ccc(CN(CCN(C)C)c2ccccn2)cc1,11.1
11,CC(COc1ccccc1)N(CCCl)Cc1ccccc1 (configuration not stated),3.77
12,Nc1ncn([C@@H]2O[C@H](CO)[C@@H](O)[C@H]2O)c(=O)n1,0.698
13,CC(=O)c1ccc(S(=O)(=O)NC(=O)NC2CCCCC2)cc1,-5.89
14,COc1cc(C(=O)O)cc(OC)c1O,0.861
15,Cc1scc2c1N(C(=O)CN1CCN(C)CC1)c1ccccc1NC2=O,0.854
16,Cn1c(=O)c2nc[nH]c2n(C)c1=O,5.34
17,C=C1c2cccc(O)c2C(=O)C2=C(O)[C@]3(O)C(=O)C(C(N)=O)=C(O)[C@@H](N(C)C)[C@@H]3[C@@H](O)[C@H]12,0.116
18,c1ccc(C2CN3CCSC3=N2)cc1 (configuration not stated),2.34
19,COc1cc2cc3c4cc(OC)c(OC)cc4cc[n+]3c(C)c2cc1OC,1.79
20,NC1(C(=O)O)CCCC1,2
21,NCCCC[C@H](N[C@@H](CCc1ccccc1)C(=O)O)C(=O)N1CCC[C@H]1C(=O)O,1.48
22,CC(C)(C)NC[C@H](O)COc1nsnc1N1CCOCC1,3.08
23,C[C@]12CCC(=O)C=C1CC[C@@H]1[C@@H]2[C@@H](O)C[C@@]2(C)[C@H]1CC[C@]2(O)C(=O)COC(=O)CCC(=O)O,-1.09
24,C[C@@]12CCc3occc3[C@H]1CC[C@@]13C[C@@H](CC[C@H]12)[C@@](O)(CO)C3,1.36
25,CO/N=C(\C(=O)N[C@@H]1C(=O)N2C(C(=O)O)=C(CSc3nc(=O)c(O)nn3C)CS[C@H]12)c1csc(N)n1,1.3

# Single entries from above.
# Under AlphaScreen HuR-RNA complex signal Z-score, `COc1cc(C(=O)O)cc(OC)c1O` is listed with 0.861
# Under AlphaScreen HuR-RNA complex signal Z-score, `Cc1cc(/C=C/c2ccc3cc(N(C)C)ccc3[n+]2C)c(C)n1-c1ccccc1` is listed with 4.86

# Continued:

row,SMILES,AlphaScreen HuR-RNA complex signal Z-score
1,FC(F)(F)c1ccccc1-n1ccnc1,0.199
2,O=C(Cc1cccs1)N[C@@H]1C(=O)N2C(C(=O)[O-])=C(C[n+]3ccccc3)CS[C@H]12,1.13
3,O=C(O)CS,3.05
4,COc1cc(-c2coc3cc(O)c(OC)c(O)c3c2=O)cc(O)c1OC,1.48
5,CCOC(=O)OC(C)OC(=O)[C@@H]1N2C(=O)[C@@H](NC(=O)[C@H](N)c3ccccc3)[C@H]2SC1(C)C (some centres not stated),0.923
6,CC(C)CCC[C@@H](C)[C@H]1CC[C@H]2[C@@H]3CC[C@H]4C[C@H](O)CC[C@]4(C)[C@H]3CC[C@]12C,1.61
7,COC1=C(OC)C(=O)C(CCCCCCCCCCO)=C(C)C1=O,1.27
8,CC(=O)N[C@@H](CC(C)C)C(=O)O,1.66
9,Nc1nc(=O)c2nc(CNc3ccc(C(=O)N[C@@H](CCC(=O)O)C(=O)O)cc3)cnc2[nH]1,1.74
10,C=CC[S+]([O-])C[C@H](N)C(=O)O (mixture of isomers),1.23
11,COc1c2ccoc2nc2c(OC)c(OCC(O)C(C)(C)O)ccc12 (configuration not stated),2.05
12,CC[C@H]1OC(=O)[C@H](C)[C@@H](O[C@H]2C[C@@](C)(OC)[C@@H](O)[C@H](C)O2)[C@H](C)[C@@H](O[C@@H]2O[C@H](C)C[C@H](N(C)C)[C@H]2O)[C@](C)(O)C[C@@H](C)/C(=N\OCOCCOC)[C@H](C)[C@@H](O)[C@]1(C)O,-1.64
13,O=C1CN2Cc3c(ccc(Cl)c3Cl)N=C2N1,-2.94
14,C#CCCCCCCCCCCCC(O)CC(O)CO (configuration not stated),1.14
15,CC(C)NCC(O)COc1ccc(COCCOC(C)C)cc1 (configuration not stated),-0.491
16,CC(=O)OC[C@@]1(O)C[C@@]23CC[C@@H]4c5ccoc5CC[C@@]4(C)[C@@H]2CC[C@@H]1C3,-0.495
17,COc1ccc(-c2cc(=O)c3c(O)cc(O)cc3o2)cc1O,1.77
18,COc1cc2ccc(=O)oc2c(OC)c1OC,2.43
19,O=C(Cn1ccnc1[N+](=O)[O-])NCCO,0.457
20,CC(=O)OCC(COC(C)=O)OC(C)=O,-1.52
21,O=c1cc(-c2ccc(O)cc2)oc2cc(O)cc(O)c12,3.62
22,CCOc1cccc(C(=O)c2ccc(O)c(O)c2O)c1,1.63
23,NC(=O)N1c2ccccc2C=Cc2ccccc21,0.312
24,CN(C)CCN(Cc1cccs1)c1ccccn1,1.48
25,COc1ccc2c(c1)OCc1c-2oc2cc(OC)ccc12,2.37

row,SMILES,AlphaScreen HuR-RNA complex signal Z-score
1,COc1ccc([C@H]2COc3c(ccc(O)c3OC)C2)c(OC)c1O,2.42
2,O=c1c(O)cccc2cc(O)c(O)c(O)c12,-4.89
3,Cc1ccc(S(=O)(=O)NC(=O)NN2CC3CCCC3C2)cc1 (configuration not stated),2.25
4,COc1ccc(-c2cc(=O)c3c(O)cc(O)cc3o2)cc1,2.82
5,CC(=O)N[C@@H](CC(=O)N[C@@H](CCC(=O)O)C(=O)O)C(=O)O,2.86
6,Nc1nc(=O)c2[nH]c(=O)cnc2[nH]1,1.13
7,O=C(O)c1cc2ccccc2[nH]1,4.04
8,O=c1cc(-c2ccccc2)oc2cc(O)c(O)cc12,0.111
9,CCn1cc(C(=O)O)c(=O)c2cnc(N3CCNCC3)nc21,3.49
10,COc1cc2nc(N3CCN(C(=O)c4ccco4)CC3)nc(N)c2cc1OC,5.49
11,NCCS(=O)(=O)O,0.588
12,CC(=O)Oc1ccc2c(c1C(C)C)CCC1C(C)(C)CCC[C@]21C (some centres not stated),2.56
13,CCN(CC)CCNC(=O)c1cc(S(C)(=O)=O)ccc1OC,1.04
14,O=C(CCCN1CC=C(n2c(=O)[nH]c3ccccc32)CC1)c1ccc(F)cc1,0.552
15,Oc1c(I)cc(I)c2cccnc12,-3.49
16,C#CCN(C)Cc1ccccc1,2.95
17,CC(=O)O[C@H]1CC[C@@]2(C)[C@H](CC[C@@H]3[C@@H]2CC[C@]2(C)[C@@H]4[C@H](C[C@@H]32)O[C@]2(CC[C@@H](C)CO2)[C@H]4C)C1,1.61
18,CCCCCC(C)N (configuration not stated),-1.31
19,COc1ccc2cc(CCC(C)=O)ccc2c1,0.458
20,O=C(O)CCC(=O)OC[C@@H](NC(=O)C(Cl)Cl)[C@H](O)c1ccc([N+](=O)[O-])cc1,-3.14
21,CCn1cc(C(=O)O)c(=O)c2ccc(C)nc21,-0.41
22,CCOc1ccc(C(=O)c2cc(O)c(OC)c(OC)c2O)cc1,1.58

# Rewritten as tab-separated lines: three of the compounds above
row	SMILES	AlphaScreen HuR-RNA complex signal Z-score
19	CC(C(=O)O)c1ccc(N2Cc3ccccc3C2=O)cc1 (configuration not stated)	0.211
20	CO[C@@]12[C@H](COC(N)=O)C3=C(C(=O)C(C)=C(N)C3=O)N1C[C@@H]1N[C@@H]12	0.315
21	C[C@H]1C[C@H]2[C@@H]3CCC4=CC(=O)C=C[C@]4(C)[C@@]3(F)[C@@H](O)C[C@]2(C)[C@@]1(O)C(=O)CO	0.312
